Measurements from patent publication US10227347B2, “Purinyl-N-hydroxyl pyrimidine formamide derivative, preparation methods and uses thereof” (Guizhou Bailing Group Pharmaceutical CO., LTD., priority 2015, dated 2019).
pEC50, pIC50: −log10 of the molar value.

How the values were obtained:
Assay type in all cases: cell-based
[1] = test system: A2780s cells (ovarian cancer); test: Cell proliferation inhibition, A2780s (MTT); details: Homo sapiens, 96 h incubation
Method: (§1) The tumor cell lines are purchased from American Type Culture Collection (ATCC) and cultivated to the status of logarithmic growth as per the cultural method recommended by ATCC. The cells in logarithmic phase are spread on a 96 well plate as per 2000-3000/well; as for anchorage-dependent cells, the compound should be added in the test wells at certain concentration for incubation for 96 h after cell adherence. Determining cell proliferation activities with method MTT for tumor cells representing solid tumor model and with method cck-8 for tumor cells representing hematologic tumor model, and analyzing the result data with the software GraphPad Prism.
(§2) Calculating the value of IC50 as per the formula: Y=background data+(top data−background data)/(1+10^((Log IC50−X)*rate of curve)). Where, Y refers to the inhibition ratio (%) and X refers to the compound concentration.

[2] = test system: acetylated histone H3 (Ac-H3) in A2780s cells; test: Induction of histone H3 acetylation in A2780s cells (cytoblot); details: Homo sapiens, 6 h treatment
Method: (§3) Specific operation: After the treatment, washing each well once with 50-100 μl of cold TBS buffer [with the composition as 20 mM Tris (trismetyl aminomethane), pH7.5] and fixing it with 100 μL of 4% pre-cooled paraformaldehyde at 4° C. for 1 h; after paraformaldehyde is washed off, adding 50 μL of pre-cooled methyl alcohol in each well and evenly spreading at 4° C. for 5 min; after methyl alcohol is washed off, washing it once with the TBS buffer containing 3% skim milk powder and adding 50 μL of antibody fluid, oscillating it slightly at 4° C. and incubating overnight. […] Discarding the antibody fluid in the next day and washing it twice with TBS buffer; then adding enhanced chemiluminescence (ECL) liquid (which is purchased from Abbkine Company), determining the chemiluminescence intensity with a microplate reader, and analyzing the result data with the software GraphPad Prism. […]

[3] = test system: acetylated Ac-α-tubulin in A2780s cells; test: Induction of α-tubulin acetylation in A2780s cells (cytoblot); details: Homo sapiens, 6 h treatment, read-out: Ac-Tub EC50
Method: as §3

[4] = test system: MV4-11 cells (acute myeloid leukemia); test: Cell proliferation inhibition, MV4-11 (cck-8); details: Homo sapiens, 96 h incubation
Method: as §1, §2

[5] = test system: hct116 cells (colon cancer); test: Cell proliferation inhibition, hct116 (MTT); details: Homo sapiens, HCT-116; 96 h incubation
Method: as §1, §2

Structure (SMILES): O=C(CCCCCCC(=O)Nc1ccccc1)NO [SAHA, vorinostat, reference compound]
- pIC50 [1]: < 6.00
- pEC50 [2]: < 6.70
- pEC50 [3]: < 6.70
- pIC50 [4]: 6.00 to 7.00
- pIC50 [5]: 6.00 to 7.00
